Measurements taken from paper PMC12685520.
No constants are given. Whether binding was seen depends on the method and setting. In cells and extracts the contact can be indirect. Some results given as binding are weak or reduced against the parent protein; the word gives no strength.

The chains behind the UniProt entries cited, without tags or fusion partners. Where a name states a change or a piece, a line headed by the entry shows the natural chain unless it says otherwise. Residues count along the entry.
UniProt Q8IZ07: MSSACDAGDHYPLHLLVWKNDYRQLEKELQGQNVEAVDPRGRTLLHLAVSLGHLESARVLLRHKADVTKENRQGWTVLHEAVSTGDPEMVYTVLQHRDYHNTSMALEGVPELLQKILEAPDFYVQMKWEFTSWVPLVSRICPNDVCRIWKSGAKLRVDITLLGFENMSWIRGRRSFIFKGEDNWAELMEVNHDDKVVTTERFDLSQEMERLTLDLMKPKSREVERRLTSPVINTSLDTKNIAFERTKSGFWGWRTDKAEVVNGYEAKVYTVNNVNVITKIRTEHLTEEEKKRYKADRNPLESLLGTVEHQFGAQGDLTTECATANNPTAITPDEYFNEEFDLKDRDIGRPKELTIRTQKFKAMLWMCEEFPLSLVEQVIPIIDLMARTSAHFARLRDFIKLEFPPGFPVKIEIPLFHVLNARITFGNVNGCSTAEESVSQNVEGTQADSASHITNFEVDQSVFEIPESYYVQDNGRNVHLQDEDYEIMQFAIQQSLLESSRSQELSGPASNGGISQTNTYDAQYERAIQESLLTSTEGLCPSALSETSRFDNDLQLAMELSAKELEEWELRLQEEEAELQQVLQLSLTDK
3xFLAG-ANKRD13A ΔAR (102–590 a.a.): residues 103-590 of Q8IZ07
UniProt Q99623: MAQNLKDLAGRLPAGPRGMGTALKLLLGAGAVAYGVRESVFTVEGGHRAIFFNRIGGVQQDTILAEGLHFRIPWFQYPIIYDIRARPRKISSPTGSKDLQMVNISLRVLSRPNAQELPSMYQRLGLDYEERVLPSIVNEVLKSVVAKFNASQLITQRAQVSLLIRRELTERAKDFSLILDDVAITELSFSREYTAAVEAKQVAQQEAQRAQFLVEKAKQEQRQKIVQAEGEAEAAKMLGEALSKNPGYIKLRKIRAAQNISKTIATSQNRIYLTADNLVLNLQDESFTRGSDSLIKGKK

Assays:
[1] = biological target: 3xFLAG-ANKRD13A ΔAR (102–590 a.a.) (human) (UniProt Q8IZ07); experiment: co-IP; immunoprecipitation (Fig. S2B; legend not shown), basal and OA-treated cells
[2] = biological target: 3xFLAG-ANKRD13A (wild-type) (human) (UniProt Q8IZ07); experiment: as above
[3] = biological target: PHB2-StrepII-FLAG (human) (UniProt Q99623); experiment: co-IP; anti-FLAG M2 immunoprecipitation from HeLa Parkin cells expressing FLAG-tagged constructs, DMSO or OA 4 h; 25 mM Hepes pH 7.4, 150 mM NaCl, 1 mM EDTA, 10 mM NEM; overnight 4 °C; Western blot; in one panel the immunoprecipitates were incubated with the USP2 catalytic domain for 40 min (interaction with PHB2 markedly reduced)
[4] = biological target: PHB2-StrepII-FLAG (human) (UniProt Q99623); experiment: condition: only with epoxomicin (200 nM) added to OA; co-IP; as a4, cells treated with OA + epoxomicin (200 nM) for 4 h
[5] = biological target: PHB2-StrepII-FLAG (human) (UniProt Q99623); experiment: pull-down; Strep-Tactin resin followed by anti-FLAG pull-down of PHB2-StrepII-FLAG from HeLa Parkin cells (DMSO or OA 4 h), Western blot
[6] = biological target: prohibitin 2 (PHB2), endogenous (human (endogenous in HeLa)) (UniProt Q99623); experiment: co-IP; endogenous proteins in HeLa Parkin cells, DMSO or OA 4 h; cells incubated with 2 mM DSP at 4 °C for 2 h before lysis; immunoprecipitation with anti-PHB2 or anti-ANKRD13A antibodies

binding [1] | binding [2] | binding [3] | binding [4] | binding [5] | binding [6] | Substance
binds | binds | – | – | – | – | Valosin-containing protein (from UniProt P55072 1-806) (enzyme)
– | – | binds | no binding | binds | binds | ankyrin repeat domain-containing protein 13 A (ANKRD13A), endogenous (from UniProt Q8IZ07 1-590)
